{"source": "patent US20090311335A1", "about": "“COMBINATION OF A TRIPTAN AND AN NSAID” (priority 2008, published 2009)", "origin": "cited, not measured here"}
{"compound": "COc1ccc2cc([C@H](C)C(=O)O)ccc2c1", "note": "[naproxen, (S)-6-methoxy-methyl-2-naphthaleneacetic acid]", "values": [{"measurement": "plasma concentrations required for anti-inflammatory or analgesic effects", "setting": "human, in vivo", "value": "30 to 90", "unit": "µg/mL"}, {"measurement": "plasma levels at which reduced pain intensity was demonstrated", "setting": "sixty postpartum women, 0.5 to 6 hours after oral administration", "value": "30 to 70", "unit": "µg/mL"}, {"measurement": "plasma levels at which clinical response occurred", "setting": "twenty-four patients with rheumatoid arthritis", "value": "above 50 μg/ml"}]}
